Measurements as given in PubChem BioAssay AID540276 (National Center for Advancing Translational Sciences (NCATS), 2011).
The whole screen tested about 300,000 compounds, of which about 5,400 (1.8%) were called active. Inconclusive means that the source gave no clear call. Such entries were picked first, then a sample of the others. Calls follow the shape of the full dose curve; tested in HEK293 cells. Where the call is inconclusive, the potency comes from a doubtful curve fit.

Test: qHTS for inhibitors of binding or entry into cells for Marburg Virus
Details: Marburg virus pseudotyped entry inhibition, cell reporter; series mostly up to 37.8 µM
Potency is read from the fitted curve at half-maximal effect.

| Compound | Potency |
| --- | --- |
| COc1ccc2cc(C(=O)/C=C/c3cc(OC)c(OC)c(OC)c3)ccc2c1 | inconclusive: 2.82 µM [inhibitor, partial curve, poor fit] |
| N[C@H](CCCCCP(=O)(O)O)C(=O)O | inconclusive: 5.8 µM [inhibitor, partial curve] |
| COc1ccccc1N1CCN(C(=O)CSc2nnc3c4ccccc4n(CC(=O)O)c3n2)CC1 | inconclusive: 35.5 µM [activator, single point] |
| Cc1cnc(C(=O)OCC(=O)c2ccc[nH]2)cn1 | inactive |
| COc1cccc(N(CC(=O)NC2CCCC2)C(=O)Cn2nnc(-c3ccc(C)o3)n2)c1 | inconclusive: 5.01 µM [inhibitor, single point] |
| O=C(NCC12CC3CC(CC(C3)C1)C2)c1nn2cccnc2c1Cl | inconclusive: 3.66 µM [inhibitor, single point] |
| O=Cc1c(OCc2ccccc2)ccc2ccccc12 | inconclusive: 5.62 µM [activator, single point] |
| CC(C)(CNC(=O)c1ccc(NS(=O)(=O)c2ccc(Br)cc2)cc1)N1CCOCC1 | inactive |
| COC(=O)c1cn(C(=O)c2ccccc2Cl)c2ccccc12 | inconclusive: 35.5 µM [inhibitor, single point] |
| N#CCCN1CCN(C(=O)c2c(N)no[n+]2[O-])CC1 | inactive |
| O=C(CN1C(=O)c2ccc([N+](=O)[O-])cc2C1=O)NCC1CCCO1 (stereo not drawn) | inconclusive: 1.26 µM [inhibitor, single point] |
| COc1ccc(-c2ccc(Nc3ccc(S(=O)(=O)N4CCCC4)cc3)nn2)cc1OC | active: 14.6 µM |
| C#CCn1c(C2CC(=O)N(c3ccc(OC)cc3)C2)nc2ccccc21 (stereo not drawn) | inconclusive: 7.08 µM [inhibitor, full curve] |
| O=C(CN1c2cccc3cccc(c23)S1(=O)=O)NCc1ccc(F)cc1 | inconclusive: 7.08 µM [inhibitor, partial curve, poor fit] |
| CN1CCN(C2(CNC(=O)c3ccc(C(C)(C)C)cc3)CCCCC2)CC1 | inconclusive: 14.1 µM [inhibitor, single point] |
| FC(F)(F)c1ccc(NC(=S)NC2CCCCC2)cc1 | inconclusive: 2.82 µM [activator, partial curve, poor fit] |
| CCNC(=S)NCc1ccc(F)cc1 | inactive |
| COc1ccc(NC(=O)c2cc(C)nc3ccccc23)c(OC)c1 | inconclusive: 0.794 µM [inhibitor, single point] |
| O=C(COC(=O)C1CC2CCCC(C1)C2=O)Nc1cccc(F)c1 (stereo not drawn) | inconclusive: 0.562 µM [activator, full curve, poor fit] |
| COc1ccc2occ(CC(=O)Nc3ccc(S(=O)(=O)Nc4nccc(C)n4)cc3)c2c1 | inactive |
| CC(=O)c1c(C)[nH]c(C(=O)CN(C)CC(=O)Nc2ccccc2Cl)c1C | inconclusive: 12.6 µM [inhibitor, partial curve, poor fit] |
| Cc1ccc(O)c(NC(=O)Cc2ccc3ccccc3c2)c1 | inconclusive: 3.16 µM [inhibitor, single point] |
| CC(OC(=O)COc1ccccc1[N+](=O)[O-])C(=O)Nc1ccc(N2CCOCC2)cc1 (stereo not drawn) | inconclusive: 11.2 µM [activator, single point] |

| Compound | Potency |
| --- | --- |
| COc1cc(C(=O)NC(C)c2cc(C)ccc2C)ccc1OCC(=O)N1CCOCC1 (stereo not drawn) | inconclusive: 3.98 µM [activator, full curve, poor fit] |
| COc1cccc(-c2cc(C(=O)Nc3c(C)nn(Cc4ccccc4Cl)c3C)no2)c1 | inconclusive: 3.16 µM [inhibitor, single point] |
| Cc1ccc(NC(=S)NNC(=O)c2ccc(N3CCOCC3)c([N+](=O)[O-])c2)cc1C | inactive |
| c1ccc2[nH]c(SCCN3CCOCC3)nc2c1 | inactive |
| O=S(=O)(NCC1CCCO1)c1cnc(Cl)c(Cl)c1 (stereo not drawn) | inconclusive: 14.6 µM [inhibitor, partial curve, poor fit] |
| Cc1cc(C)cc(N(CC(=O)NCc2ccc(F)cc2)C(=O)CCC(=O)Nc2ccccn2)c1 | inconclusive: 31.6 µM [inhibitor, single point] |
| CN1CCN(C(=O)c2ccc(CN(c3ccccc3)S(=O)(=O)c3ccccc3)cc2)CC1 | inconclusive: 35.5 µM [inhibitor, single point] |
| COc1ccc(-n2c(=O)c(CCC(=O)N(C)Cc3ccccc3C)nc3ccccc32)cc1 | inactive |
| COc1cc(/C=C2\SC(=S)N(CCC(=O)NC3CCCC3)C2=O)cc(OC)c1OC | inactive |
| Cc1ccc(-c2nnn(CC(=O)N(c3cccc(F)c3)C(C(=O)NC3CCCC3)c3ccco3)n2)o1 (stereo not drawn) | inconclusive: 25.9 µM [inhibitor, single point] |
| Cc1cccc(-c2nc(CS(=O)CC(=O)NCC3CCCO3)c(C)o2)c1 (stereo not drawn) | inconclusive: 0.731 µM [inhibitor, single point] |
| O=C(NCCC1=CCCCC1)C1CCN(C(=O)Cc2ccccc2)CC1 | inactive |
| Cc1ccc(-c2c(C#N)c(N)n3c(nc4ccccc43)c2C#N)cc1 | inconclusive: 11.2 µM [inhibitor, partial curve, poor fit] |
| CC(C)CC(=O)N1CCN(C(=O)CCC2CCCC2)CC1 | inconclusive: 0.112 µM [activator, full curve, poor fit] |
| CCOc1ccc(C(=O)c2cn(CC(=O)Nc3ccc(OC)cc3)c3cc4c(cc3c2=O)OCCO4)cc1 | inactive |
| Nc1ccc(C(=O)N/N=C/c2cn(Cc3ccccc3)c3ccccc23)cc1 | inconclusive: 8.91 µM [inhibitor, partial curve, poor fit] |
| COc1ccc(Cl)cc1NC(=O)CN(C)CC(=O)Nc1cccc(S(=O)(=O)N2CCCC2)c1 | inconclusive: 22.4 µM [inhibitor, single point] |
| COc1ccc(-n2c(SCC(=O)Nc3cc(C)on3)nc3c([nH]c4ccccc43)c2=O)cc1OC | inconclusive: 1.26 µM [inhibitor, single point] |
| COc1ccc(/C=N/NC(=O)c2ccn[nH]2)cc1Cn1cc([N+](=O)[O-])cn1 | inactive |
| O=C(CS(=O)(=O)c1ccccc1)N1CCCCCC1 | inconclusive: 0.355 µM [activator, partial curve, poor fit] |
| Clc1cccc(/C=N/Nc2ncnc3ccccc23)c1 | inconclusive: 2.91 µM [activator, single point] |
| CCOC(=O)C1=C(COC(=O)/C=C/c2ccc(OC)c(OC)c2)NC(=O)NC1C (stereo not drawn) | inactive |
| Cc1ccccc1CC1(CO)CCCN(Cc2ccccc2Cl)C1 (stereo not drawn) | inconclusive: 35.5 µM [inhibitor, single point] |

A stretch from further up, for reference:

| Compound | Potency |
| --- | --- |
| N#CCCN1CCN(C(=O)c2c(N)no[n+]2[O-])CC1 | inactive |
| O=C(CN1C(=O)c2ccc([N+](=O)[O-])cc2C1=O)NCC1CCCO1 (stereo not drawn) | inconclusive: 1.26 µM [inhibitor, single point] |
| COc1ccc(-c2ccc(Nc3ccc(S(=O)(=O)N4CCCC4)cc3)nn2)cc1OC | active: 14.6 µM |
| C#CCn1c(C2CC(=O)N(c3ccc(OC)cc3)C2)nc2ccccc21 (stereo not drawn) | inconclusive: 7.08 µM [inhibitor, full curve] |
| O=C(CN1c2cccc3cccc(c23)S1(=O)=O)NCc1ccc(F)cc1 | inconclusive: 7.08 µM [inhibitor, partial curve, poor fit] |
| CN1CCN(C2(CNC(=O)c3ccc(C(C)(C)C)cc3)CCCCC2)CC1 | inconclusive: 14.1 µM [inhibitor, single point] |
| FC(F)(F)c1ccc(NC(=S)NC2CCCCC2)cc1 | inconclusive: 2.82 µM [activator, partial curve, poor fit] |
| CCNC(=S)NCc1ccc(F)cc1 | inactive |
| COc1ccc(NC(=O)c2cc(C)nc3ccccc23)c(OC)c1 | inconclusive: 0.794 µM [inhibitor, single point] |
| O=C(COC(=O)C1CC2CCCC(C1)C2=O)Nc1cccc(F)c1 (stereo not drawn) | inconclusive: 0.562 µM [activator, full curve, poor fit] |
| COc1ccc2occ(CC(=O)Nc3ccc(S(=O)(=O)Nc4nccc(C)n4)cc3)c2c1 | inactive |
| CC(=O)c1c(C)[nH]c(C(=O)CN(C)CC(=O)Nc2ccccc2Cl)c1C | inconclusive: 12.6 µM [inhibitor, partial curve, poor fit] |
| Cc1ccc(O)c(NC(=O)Cc2ccc3ccccc3c2)c1 | inconclusive: 3.16 µM [inhibitor, single point] |
| CC(OC(=O)COc1ccccc1[N+](=O)[O-])C(=O)Nc1ccc(N2CCOCC2)cc1 (stereo not drawn) | inconclusive: 11.2 µM [activator, single point] |
| COc1cc(C(=O)NC(C)c2cc(C)ccc2C)ccc1OCC(=O)N1CCOCC1 (stereo not drawn) | inconclusive: 3.98 µM [activator, full curve, poor fit] |
| COc1cccc(-c2cc(C(=O)Nc3c(C)nn(Cc4ccccc4Cl)c3C)no2)c1 | inconclusive: 3.16 µM [inhibitor, single point] |
| Cc1ccc(NC(=S)NNC(=O)c2ccc(N3CCOCC3)c([N+](=O)[O-])c2)cc1C | inactive |

Continued:

| Compound | Potency |
| --- | --- |
| N#Cc1c(-c2ccccc2)ccn(Cc2ccccc2Cl)c1=O | inactive |
| C=CCc1cccc2cc(C(=O)NC3CCCC3)c(=O)oc12 | inconclusive: 0.562 µM [activator, full curve, poor fit] |
| Cc1ccccc1C(=O)Nc1cc2c(cc1N1CCOCC1)n(C)c(=O)n2C | inactive |
| CC(=NNC(=O)c1cccc(S(=O)(=O)N2CCOCC2)c1)c1ccc(Cl)cc1 | inconclusive: 22.4 µM [inhibitor, single point] |
| Fc1ccccc1/C=N/Nc1ncnc2nc[nH]c12 | inactive |
| Cc1ccc(OCC(=O)NC(=S)Nc2ccc(S(=O)(=O)Nc3cc(C)on3)cc2)c(Br)c1 | inactive |
| Clc1c(-c2ccccc2)nc2ccccn12 | inconclusive: 1 µM [activator, full curve, poor fit] |
| COc1ccc(Nc2cc(C)nc3ncnn23)cc1Cl | inconclusive: 0.282 µM [inhibitor, single point] |
| CCOc1ccc(C(=O)/C=C/c2cn(CC(O)CN3CCCCCC3)c3ccccc23)cc1 (stereo not drawn) | inconclusive: 11.2 µM [inhibitor, partial curve, poor fit] |
| CC(=O)N1CCOCCOCCN(C(C)=O)CCOCC1 | inconclusive: 31.6 µM [activator, single point] |
| CC(C)(C)c1ccc(NS(=O)(=O)c2ccc(N)cc2)cc1 | inconclusive: 35.5 µM [inhibitor, single point] |
| Cc1cccc(C)c1Nc1c(-c2ccccc2F)nc2cccc(C)n12 | inconclusive: 11.2 µM [inhibitor, partial curve, poor fit] |
| COc1cccc(-n2nnnc2SCC(=O)NCCc2ccc(OC)c(OC)c2)c1 | inconclusive: 1.12 µM [activator, full curve, poor fit] |
| O=C(Cc1ccccc1)NNS(=O)(=O)c1ccc([N+](=O)[O-])cc1 | inconclusive: 6.51 µM [inhibitor, partial curve, poor fit] |
| Cc1ccc(NC(=O)COC(=O)CCC2CCCC2)c(Br)c1 | inconclusive: 0.112 µM [activator, full curve, poor fit] |
| CCOC(=O)CN(C(=O)CSc1nnc2c(n1)[nH]c1c(C)cc(C)cc12)c1ccccc1 | inactive |
| O=C(O)C1CCCCC1C(=O)NCc1ccc2c(c1)OCO2 (stereo not drawn) | inactive |
| Cc1cc(C(=O)NCc2cc(C(=O)O)co2)co1 | inactive |
| CCc1cc2c(=O)c(-c3nc(C)cs3)coc2cc1OC(C)C(=O)NCCO (stereo not drawn) | inconclusive: 35.5 µM [inhibitor, single point] |
| Cc1cc(S(=O)(=O)N2CCOCC2)ccc1OCC(=O)N1CCOCC1 | inactive |
| CN1CCN(CC#CCn2c3ccccc3c3ccccc32)CC1 | inconclusive: 23.1 µM [inhibitor, single point] |
| CC1CCN(c2cc(N3CCOCC3)c(F)cc2[N+](=O)[O-])CC1 | inconclusive: 0.562 µM [inhibitor, full curve, poor fit] |
